Laboratory results reported in US20060154964A1, “Diarylmethylidene piperidine derivatives, preparations thereof and uses thereof” (AstraZeneca AB, priority 2003, published 2006).
Some entries share one result that the patent states for a list of compounds. Some compounds share one range, which may span the group rather than tell each member.

The chains behind the UniProt entries cited, without tags or fusion partners.
UniProt P35372, whole entry: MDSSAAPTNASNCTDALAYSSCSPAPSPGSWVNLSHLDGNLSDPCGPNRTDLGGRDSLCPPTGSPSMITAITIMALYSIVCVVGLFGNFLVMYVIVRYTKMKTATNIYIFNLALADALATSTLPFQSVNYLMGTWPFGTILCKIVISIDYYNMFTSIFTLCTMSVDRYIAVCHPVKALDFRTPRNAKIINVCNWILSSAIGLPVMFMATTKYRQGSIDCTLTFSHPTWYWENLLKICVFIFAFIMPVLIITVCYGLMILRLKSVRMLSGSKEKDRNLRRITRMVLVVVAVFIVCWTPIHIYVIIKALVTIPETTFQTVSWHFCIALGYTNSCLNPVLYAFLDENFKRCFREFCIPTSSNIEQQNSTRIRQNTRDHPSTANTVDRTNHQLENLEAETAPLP

Experiments:
human δ receptors = target: T1, human δ receptors (Homo sapiens, UniProt P41143); experiment: GTP[γ]35S binding functional assay, HEK-293S membranes expressing cloned human δ receptors; format: biochemical; settings: read-out: Human δ EC50 (low); Table 2; human δ receptors expressed at lower levels
T1 construct: expressed in transfected cells
Protocol: The agonist activity of the compounds is measured by determining the degree to which the compounds receptor complex activates the binding of GTP to G-proteins to which the receptors are coupled. In the GTP binding assay, GTP[γ]^35S is combined with test compounds and membranes from HEK-293S cells expressing the cloned human opioid receptors or from homogenised rat or mouse brain. Agonists stimulate GTP[γ]^35S binding in these membranes. The EC50 and Emax values of compounds are determined from dose-response curves. Right shifts of the dose response curve by the delta antagonist naltrindole are performed to verify that agonist activity is mediated through delta receptors. For human δ receptor functional assays, EC50 (low) is measured when the human δ receptors used in the assay were expressed at lower levels in comparison with those used in determining EC50 (high). The Emax values were determined in relation to the standard δ agonist SNC80, i.e., higher than 100% is a compound that have better efficacy than SNC80.
Rat brain membranes are thawed at 37° C., passed 3 times through a 25-gauge blunt-end needle and diluted in the GTPγS binding (50 mM Hepes, 20 mM NaOH, 100 mM NaCl, 1 mM EDTA, 5 mM MgCl2, pH 7.4, Add fresh: 1 mM DTT, 0.1% BSA). 120 μM GDP final is added membranes dilutions. The EC50 and Emax of compounds are evaluated from 10-point dose-response curves done in 300 μl with the appropriate amount of membrane protein (20 μg/well) and 100000-130000 dpm of GTPγ^35S per well (0.11-0.14 nM). The basal and maximal stimulated binding are determined in absence and presence of 3 μM SNC-80. The assay performed on HEK 293s cells stably expressing cloned Delta receptors is done in a slightly different buffer (50 mM Hepes, 20 mM NaOH, 200 mM NaCl, 1 mM EDTA, 5 mM MgCl2, pH 7.4, Add fresh: 0.5% BSA, no DTT) and with a 3 μM final conc. of GDP.

human μ receptors = target: T2, human μ receptors (Homo sapiens, UniProt P35372); experiment: Binding assay, cloned human μ receptor membranes (125I-FK33824 displacement); settings: read-out: Human μ IC50; Table 2
T2 construct: expressed in transfected cells; host or cells: human 293S cells, geneticin-selected

SMILES | EC50 (human δ receptors) [nM] | IC50 (human μ receptors) [nM]
CCN(CC)C(=O)c1ccc(C(=C2CCN(Cc3cccs3)CC2)c2cccc(NC(C)=O)c2)cc1 [Compound 1, 4-{[3-(acetylamino)phenyl][1-(thien-2-ylmethyl)piperidin-4-ylidene]methyl}-N,N-diethylbenzamide] | 15.7 to 274 | –
CCN(CC)C(=O)c1ccc(C(=C2CCN(Cc3ccco3)CC2)c2cccc(NC(C)=O)c2)cc1 [Compound 2, 4-{[3-(acetylamino)phenyl][1-(2-furylmethyl)piperidin-4-ylidene]methyl}-N,N-diethylbenzamide] | 15.7 to 274 | –
CCN(CC)C(=O)c1ccc(C(=C2CCN(Cc3cccnc3)CC2)c2cccc(NC(C)=O)c2)cc1 [Compound 5, 4-[[3-(acetylamino)phenyl][1-(3-pyridinylmethyl)-4-piperidinylidene]methyl]-N,N-diethyl-benzamide] | 15.7 to 274 | 106 to 4440
CCN(CC)C(=O)c1ccc(C(=C2CCN(Cc3ccncc3)CC2)c2cccc(NC(C)=O)c2)cc1 [Compound 6, 4-[[-3-(acetylamino)phenyl][1-(4-pyridinylmethyl)-4-piperidinylidene]methyl]-N,N-diethyl-benzamide] | 15.7 to 274 | 106 to 4440
CCN(CC)C(=O)c1ccc(C(=C2CCN(Cc3ccccn3)CC2)c2cccc(NC(C)=O)c2)cc1 [Compound 7, 4-{[3-(acetylamino)phenyl][1-(pyridin-2-ylmethyl)piperidin-4-ylidene]methyl}-N,N-diethylbenzamide] | 15.7 to 274 | –
CCN(CC)C(=O)c1ccc(C(=C2CCN(Cc3cscn3)CC2)c2cccc(NC(C)=O)c2)cc1 [Compound 8, 4-{[3-(acetylamino)phenyl][1-(1,3-thiazol-4-ylmethel)piperidin-4-ylidene]methyl}-N,N-diethylbenzamide] | 15.7 to 274 | –
CCN(CC)C(=O)c1ccc(C(=C2CCN(Cc3cncs3)CC2)c2cccc(NC(C)=O)c2)cc1 [Compound 9, 4-{[3-(acetylamino)phenyl][1-(1,3-thiazol-5-ylmethyl)piperidin-4-ylidene]methyl}-N,N-diethylbenzamide] | 15.7 to 274 | –
